These are yes or no findings as the source states them, for the method shown. In cells and extracts the contact can be indirect. Some entries that bind do so weakly or less than the wild type.

The chains behind the UniProt entries cited, without tags or fusion partners.
UniProt Q96EB6: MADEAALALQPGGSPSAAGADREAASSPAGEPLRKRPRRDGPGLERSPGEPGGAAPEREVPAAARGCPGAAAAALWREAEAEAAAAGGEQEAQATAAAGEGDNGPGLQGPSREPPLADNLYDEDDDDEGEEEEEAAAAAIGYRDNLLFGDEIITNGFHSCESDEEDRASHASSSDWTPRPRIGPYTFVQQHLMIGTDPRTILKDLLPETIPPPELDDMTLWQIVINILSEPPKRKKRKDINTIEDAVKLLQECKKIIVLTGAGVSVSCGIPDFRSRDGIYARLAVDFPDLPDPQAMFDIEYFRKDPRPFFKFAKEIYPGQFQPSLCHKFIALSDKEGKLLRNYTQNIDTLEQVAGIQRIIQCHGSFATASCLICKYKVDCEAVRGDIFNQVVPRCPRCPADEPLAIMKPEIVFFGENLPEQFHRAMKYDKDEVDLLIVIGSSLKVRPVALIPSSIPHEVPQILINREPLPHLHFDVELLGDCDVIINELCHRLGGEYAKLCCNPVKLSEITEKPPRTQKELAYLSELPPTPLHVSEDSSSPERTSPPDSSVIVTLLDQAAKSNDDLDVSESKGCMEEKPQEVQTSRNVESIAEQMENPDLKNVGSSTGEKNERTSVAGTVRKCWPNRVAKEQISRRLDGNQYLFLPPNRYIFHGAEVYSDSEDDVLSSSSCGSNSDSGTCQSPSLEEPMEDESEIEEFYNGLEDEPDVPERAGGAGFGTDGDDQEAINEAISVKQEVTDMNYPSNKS
UniProt Q09472: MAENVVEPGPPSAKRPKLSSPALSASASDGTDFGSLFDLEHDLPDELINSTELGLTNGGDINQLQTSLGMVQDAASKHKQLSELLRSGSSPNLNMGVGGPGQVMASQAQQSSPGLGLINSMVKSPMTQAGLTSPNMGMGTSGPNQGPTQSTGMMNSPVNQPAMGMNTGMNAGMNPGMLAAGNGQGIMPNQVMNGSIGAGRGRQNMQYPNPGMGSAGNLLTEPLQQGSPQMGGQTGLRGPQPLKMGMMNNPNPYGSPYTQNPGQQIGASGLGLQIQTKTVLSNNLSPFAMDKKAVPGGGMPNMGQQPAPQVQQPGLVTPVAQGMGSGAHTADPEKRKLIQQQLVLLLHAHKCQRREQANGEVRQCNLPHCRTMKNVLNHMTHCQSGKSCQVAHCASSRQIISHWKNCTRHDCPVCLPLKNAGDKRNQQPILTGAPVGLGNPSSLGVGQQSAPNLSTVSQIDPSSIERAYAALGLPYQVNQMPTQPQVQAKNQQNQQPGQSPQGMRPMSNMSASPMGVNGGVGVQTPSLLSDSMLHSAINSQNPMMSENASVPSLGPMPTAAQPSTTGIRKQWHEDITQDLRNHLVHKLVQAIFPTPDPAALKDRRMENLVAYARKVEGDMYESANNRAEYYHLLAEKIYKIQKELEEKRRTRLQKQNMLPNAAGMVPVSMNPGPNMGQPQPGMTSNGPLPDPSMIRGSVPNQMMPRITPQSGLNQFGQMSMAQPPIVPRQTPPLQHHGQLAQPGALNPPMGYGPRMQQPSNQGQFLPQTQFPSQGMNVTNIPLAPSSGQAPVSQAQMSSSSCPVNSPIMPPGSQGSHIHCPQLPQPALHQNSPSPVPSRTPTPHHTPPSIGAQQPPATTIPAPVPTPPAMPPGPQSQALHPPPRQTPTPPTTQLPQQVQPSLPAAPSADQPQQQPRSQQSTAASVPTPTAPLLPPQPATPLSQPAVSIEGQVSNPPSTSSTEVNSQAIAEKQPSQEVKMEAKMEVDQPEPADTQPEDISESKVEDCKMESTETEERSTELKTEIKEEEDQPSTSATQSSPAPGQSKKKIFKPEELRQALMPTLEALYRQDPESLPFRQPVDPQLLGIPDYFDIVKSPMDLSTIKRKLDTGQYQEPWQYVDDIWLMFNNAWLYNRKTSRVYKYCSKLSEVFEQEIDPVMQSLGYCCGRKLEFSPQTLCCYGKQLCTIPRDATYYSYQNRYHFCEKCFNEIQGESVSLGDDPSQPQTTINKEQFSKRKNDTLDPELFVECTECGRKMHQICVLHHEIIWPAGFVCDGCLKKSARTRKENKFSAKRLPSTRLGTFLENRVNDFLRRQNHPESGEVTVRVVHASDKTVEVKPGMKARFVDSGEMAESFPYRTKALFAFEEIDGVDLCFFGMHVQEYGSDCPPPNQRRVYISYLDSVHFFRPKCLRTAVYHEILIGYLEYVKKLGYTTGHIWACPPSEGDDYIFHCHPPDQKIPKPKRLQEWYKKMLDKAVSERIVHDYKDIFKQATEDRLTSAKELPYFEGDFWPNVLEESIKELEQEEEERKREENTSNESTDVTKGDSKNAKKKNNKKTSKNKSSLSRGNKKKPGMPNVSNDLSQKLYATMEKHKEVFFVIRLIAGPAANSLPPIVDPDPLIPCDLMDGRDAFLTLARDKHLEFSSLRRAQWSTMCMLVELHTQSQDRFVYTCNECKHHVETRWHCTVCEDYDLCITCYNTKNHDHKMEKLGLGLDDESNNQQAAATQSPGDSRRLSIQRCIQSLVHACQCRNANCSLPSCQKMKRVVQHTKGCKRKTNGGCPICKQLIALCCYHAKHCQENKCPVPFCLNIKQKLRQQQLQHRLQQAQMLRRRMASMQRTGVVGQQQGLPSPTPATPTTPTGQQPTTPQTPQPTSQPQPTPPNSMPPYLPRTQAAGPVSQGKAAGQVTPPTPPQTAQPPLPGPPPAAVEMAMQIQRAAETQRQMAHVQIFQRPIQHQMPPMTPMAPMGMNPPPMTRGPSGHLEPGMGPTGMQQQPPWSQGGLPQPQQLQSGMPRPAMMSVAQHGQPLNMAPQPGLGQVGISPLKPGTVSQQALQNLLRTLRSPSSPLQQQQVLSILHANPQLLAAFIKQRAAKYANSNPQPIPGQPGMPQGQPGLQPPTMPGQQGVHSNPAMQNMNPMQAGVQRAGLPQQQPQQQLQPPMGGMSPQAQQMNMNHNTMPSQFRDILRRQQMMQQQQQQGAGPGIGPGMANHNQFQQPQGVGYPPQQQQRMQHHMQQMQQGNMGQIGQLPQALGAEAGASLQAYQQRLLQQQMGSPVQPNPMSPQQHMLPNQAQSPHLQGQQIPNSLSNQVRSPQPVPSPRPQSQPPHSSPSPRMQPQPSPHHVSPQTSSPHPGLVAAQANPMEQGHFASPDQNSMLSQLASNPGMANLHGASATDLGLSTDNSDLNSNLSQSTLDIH

The target of test [1] is Sirtuin 1 (human (endogenous in hESC-derived chondrogenic pellets)) (UniProt Q96EB6). In words: co-IP; 15–20 day 14 + 14 pellets (treated with DMSO or SRT1720) fixed 1 h in 4% paraformaldehyde, ground, lysed in RIPA buffer; 100 µg lysate incubated overnight at 4°C with antibody to SIRT1 (Millipore) or to P300 (Abcam), magnetic beads 5 h at 4°C, washed 3 times in PBS; western blot for ARID5B. In general terms: A western blot detects proteins with antibodies after separation by electrophoresis.

The target in test [2] is histone acetyltransferase P300 (human (endogenous in hESC-derived chondrogenic pellets)) (UniProt Q09472). Described as above.

B1: AT‐rich interaction domain 5B (protein, UniProt Q14865 1-1188)
chain: MEPNSLQWVGSPCGLHGPYIFYKAFQFHLEGKPRILSLGDFFFVRCTPKDPICIAELQLLWEERTSRQLLSSSKLYFLPEDTPQGRNSDHGEDEVIAVSEKVIVKLEDLVKWVHSDFSKWRCGFHAGPVKTEALGRNGQKEALLKYRQSTLNSGLNFKDVLKEKADLGEDEEETNVIVLSYPQYCRYRSMLKRIQDKPSSILTDQFALALGGIAVVSRNPQILYCRDTFDHPTLIENESICDEFAPNLKGRPRKKKPCPQRRDSFSGVKDSNNNSDGKAVAKVKCEARSALTKPKNNHNCKKVSNEEKPKVAIGEECRADEQAFLVALYKYMKERKTPIERIPYLGFKQINLWTMFQAAQKLGGYETITARRQWKHIYDELGGNPGSTSAATCTRRHYERLILPYERFIKGEEDKPLPPIKPRKQENSSQENENKTKVSGTKRIKHEIPKSKKEKENAPKPQDAAEVSSEQEKEQETLISQKSIPEPLPAADMKKKIEGYQEFSAKPLASRVDPEKDNETDQGSNSEKVAEEAGEKGPTPPLPSAPLAPEKDSALVPGASKQPLTSPSALVDSKQESKLCCFTESPESEPQEASFPSFPTTQPPLANQNETEDDKLPAMADYIANCTVKVDQLGSDDIHNALKQTPKVLVVQSFDMFKDKDLTGPMNENHGLNYTPLLYSRGNPGIMSPLAKKKLLSQVSGASLSSSYPYGSPPPLISKKKLIARDDLCSSLSQTHHGQSTDHMAVSRPSVIQHVQSFRSKPSEERKTINDIFKHEKLSRSDPHRCSFSKHHLNPLADSYVLKQEIQEGKDKLLEKRALPHSHMPSFLADFYSSPHLHSLYRHTEHHLHNEQTSKYPSRDMYRESENSSFPSHRHQEKLHVNYLTSLHLQDKKSAAAEAPTDDQPTDLSLPKNPHKPTGKVLGLAHSTTGPQESKGISQFQVLGSQSRDCHPKACRVSPMTMSGPKKYPESLSRSGKPHHVRLENFRKMEGMVHPILHRKMSPQNIGAARPIKRSLEDLDLVIAGKKARAVSPLDPSKEVSGKEKASEQESEGSKAAHGGHSGGGSEGHKLPLSSPIFPGLYSGSLCNSGLNSRLPAGYSHSLQYLKNQTVLSPLMQPLAFHSLVMQRGIFTSPTNSQQLYRHLAAATPVGSSYGDLLHNSIYPLAAINPQAAFPSSQLSSVHPSTKL
Consider B1, for which the binding entry in test [1] is recorded as “binds”; in test [2] it was “no binding”.

The record behind these values is publication PMC9322318.
